# Results from one PubChem assay

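Luminescence from an EWS-FLI1 target-promoter (NR0B1) reporter, set against a CMV-promoter reporter, two days after silencing single genes in TC32 Ewing sarcoma cells. Each siRNA was applied at 20 nM. A z-score of the log NR0B1-over-CMV signal, less the median of siRNAs with the same seed; more negative means a stronger specific loss of the NR0B1 reporter.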

This is part of the screen; most of the strongest results are not listed here. Sequences are the guide (antisense) strand, without overhang.

- UCAGCAAAAAUGAAAGGCG against TGM1 : seed-corrected z-score 0.05864
- UUCUGAUCCAUGUAUUCCA against HEPACAM : seed-corrected z-score 0.2973
- UCUGUAGCCUAGUCCUUCC against GPANK1 : seed-corrected z-score 0.6456
- AAUAAUAUUACUGAGGAAC against OR1S2 : seed-corrected z-score 0.06281
- UUUAGUUCACUUCGAAGCC against SPECC1 : seed-corrected z-score 0.703
- CUCCUGUAUCUGGCUCUGC against DPM3 : seed-corrected z-score 0.4933
- ACAGUUACCAGAGAUGCAC against TRPV3 : seed-corrected z-score 0.9358
- UAUCUUGCUACUAGAAUCC against FAM13B : seed-corrected z-score -1.206
- CCUGGGAUUUCAAUAACUC against LOC101928697 : seed-corrected z-score 1.103
- UAUCAAUCUGAGGUGGGUG against MBTPS2 : seed-corrected z-score 0.2605
- UAUCAAUCUUGGUACAUAG against WFDC8 : seed-corrected z-score 0.6204
- UGCGUAAUAGUGAUAACAC against TMEM40 : seed-corrected z-score -0.3372
- UAGUUUGGGAGUACGUUUC against APOO : seed-corrected z-score -0.4184
- UCUUUGUUCACUUGGGUCU against CCDC189 : seed-corrected z-score -1.766
- AUUGUGCCCAUUAAUCUCC against MYO18A : seed-corrected z-score -0.004079
- AUUCGUGUUGUUUCCAGUC against NAPRT : seed-corrected z-score 0.2409
- UUCUUUGCAAGGUCGCUGU against ZNF496 : seed-corrected z-score -1.282
- UGACCUUCUUCACUGAGCC against CNN3 : seed-corrected z-score 0.2312
- UUCAACUCCAGGGAGAUUG against TRIM68 : seed-corrected z-score 0.7171
- UUAACUACUACACAACUGC against RPS12P4 : seed-corrected z-score 0.5512
- UUUAUUCAGAUGAUGCAUC against CPA6 : seed-corrected z-score -0.185
- AGAUGUUUGAAAUAUAGGG against PLOD1 : seed-corrected z-score 0.09481
- ACUGGUAUCCCUGCUUUCC against PRKCE : seed-corrected z-score -0.003193
- UAGAUGGACAUGAUAGGCC against GLOD5 : seed-corrected z-score -1.608
- UUAUAUGUAGCUUCCAUGC against PRR14L : seed-corrected z-score 0.2837
- UCGAAGGUCAGGACUUUGC against SMC1A : seed-corrected z-score 1.798
- UGCAUAACCAGAACUCGCC against SEC16A : seed-corrected z-score -0.01113
- UCCGAAUGUAGGAAAACUC against INO80C : seed-corrected z-score -0.7225
- UCUGCAGGAAUCUCAAUGC against PKM : seed-corrected z-score 0.4151
- UUUCCAGAUUGCAUAAAGC against LINC01098 : seed-corrected z-score -0.4696
- AAAGGUCAGAUACUGAUGC against UBE2N : seed-corrected z-score 0.5889
- UUCCGGUCAUUGGUCCUCA against MGAT1 : seed-corrected z-score -0.8992
- UCUGUAUCAAGUUCCUCUC against LZIC : seed-corrected z-score -0.5818
- AGAGUUCCCACCAUAUACC against BNIPL : seed-corrected z-score -0.2114
- AAAGUAAAAAGACCAGCCG against CACNG4 : seed-corrected z-score -0.5184
- UCGGAUACCAGUUUCCACC against NAALAD2 : seed-corrected z-score -1.027
- UCCGGAAAAGGGAUGCUUC against DBF4B : seed-corrected z-score 0.2926
- UAUAGUAUCCCGACUUUUC against PRR12 : seed-corrected z-score 0.5852
- UUCGCUUGAAGUCCAGUGC against PTH1R : seed-corrected z-score -0.2
- UCUCCUCCCAAUGAGGUGC against PLEKHM1 : seed-corrected z-score 1.078
- UCAGAGGUCACACUUUCGG against ETNPPL : seed-corrected z-score -0.2515
- UGUUUAACAAGACUGGAGC against ZNF773 : seed-corrected z-score -0.5989
- UAGUCUAAUGGAAAACUCG against FAM49A : seed-corrected z-score 0.3313
- UACAUAUGAAAUACUUAGC against OR5AC2 : seed-corrected z-score 0.4679
- UCUAGACAGACAGUCAUCG against C10orf90 : seed-corrected z-score -0.4137
- UUUAUACUCCUUGAGGUAA against TCEAL4 : seed-corrected z-score -0.5446
- UCAACUACAUCAUCGGAGC against NSUN5 : seed-corrected z-score -0.8752
- AUUGUAGUUAGUUGAGAGC against TMEM165 : seed-corrected z-score -1.627

5 of the entries, repeated:

| Sequence | target gene | seed-corrected z-score |
|---|---|---|
| `ACAGUUACCAGAGAUGCAC` | TRPV3 | 0.9358 |
| `UUCAACUCCAGGGAGAUUG` | TRIM68 | 0.7171 |
| `CCUGGGAUUUCAAUAACUC` | LOC101928697 | 1.103 |
| `UUCGCUUGAAGUCCAGUGC` | PTH1R | -0.2 |
| `AAAGUAAAAAGACCAGCCG` | CACNG4 | -0.5184 |

The results are deposited in PubChem (AID1159506; NCATS, 2015).